# Values quoted from earlier work, collected in patent US20020165240A1, “Method of treating proliferative diseases using Eg5 inhibitors” (priority 2001, published 2002).
# At least one structure is not confirmed: it was looked up by name or label, or the drawing left a doubt.
# Test system: Eg5
# Details: in vitro assay; cited from earlier work
smiles,measurement,value
CCOC(=O)C1=C(C)NC(=S)NC1c1cccc(O)c1 (stereo not shown) [monastrol],Eg5 motor-driven motility of microtubules,inhibit the Eg5 motor-driven motility of microtubules
